Laboratory results from publication doi:10.1101/2022.11.12.516293.
Construct, isoform or probe ends are uncertain for at least one entry. A weaker result is weaker than the reference pair of the same experiment.

Target: PU.1 (UniProt P17947)
Experiment: EMSA
Conditions: anti-PU.1 antibody used, less than T allele

## CTATTTGCCTTTAAACACCGGAAATAACACCAGTGGC (double strand) [rs1412444-C]
  binding result: binds more weakly
